PubChem BioAssay AID1259254 | NCATS | 2017

Test: 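Genome-wide screen for genes that prevent DNA re-replication in cancer cells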 (primary screen)
Cells: human HCT116 colorectal cancer cells
Reagents: single siRNA against human genes
Timing: 3 days
Measurement: 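Nuclei stained with Hoechst and imaged; cell-cycle phase assigned by DNA content; G2 share scaled per plate, non-targeting siRNA 0%, GMNN siRNA 100%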
Reading the numbers: G2 robust z-score and G2 cells, % of GMNN control: higher = more G2 cells, more excess DNA replication; raw share of cells in G2: higher = larger share of cells with G2 DNA content
Rule for the call: 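Active siRNAs have a G2 robust z of 5 or more median absolute deviations over the median, which in these data means about 38% or higher of GMNN control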
Shown is an unselected part of about 59,000 reagents tested. About 1,550 of them (2.6%) were called active. 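G2 share is only a proxy for re-replication; each gene was hit by three separate siRNAs, and active genes were retested.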 Raw values vary from plate to plate and are shown uncorrected. Unmarked entries are inactive. The numbers tell different reagents against one gene apart. The record does not give: the amount of reagent.

| Gene | reagent | G2 robust z-score | G2 cells, % of GMNN control | raw share of cells in G2 (%) |
| --- | --- | --- | --- | --- |
| BHLHA9 (basic helix-loop-helix family member a9) | 1 | -0.596 | -1.23 | 3.14 |
| BHLHA9 (basic helix-loop-helix family member a9) | 2 | 0.465 | 6.24 | 5.91 |
| BHLHA9 (basic helix-loop-helix family member a9) | 3 | 0.422 | 5.93 | 4.96 |
| MYH6 (myosin heavy chain 6) | 1 | 1.3 | 12.1 | 10 |
| MYH6 (myosin heavy chain 6) | 2 | 2.03 | 17.3 | 8.89 |
| MYH6 (myosin heavy chain 6) | 3 | -0.381 | 0.286 | 5.58 |
| FAM120AOS (family with sequence similarity 120 member A opposite strand) | 1 | -0.781 | -2.53 | 2.7 |
| FAM120AOS (family with sequence similarity 120 member A opposite strand) | 2 | 4.27 | 33 | 14 |
| FAM120AOS (family with sequence similarity 120 member A opposite strand) | 3 | -0.321 | 0.707 | 2.99 |
| SAP30BP (SAP30 binding protein) | 1 | -0.78 | -2.52 | 1.9 |
| SAP30BP (SAP30 binding protein) | 2 | -1.22 | -5.61 | 3.38 |
| SAP30BP (SAP30 binding protein) | 3 | 0.00281 | 2.99 | 4.57 |
| TCEANC | 1 | -0.15 | 1.91 | 5.51 |
| TCEANC | 2 | 1.15 | 11 | 8.74 |
| TCEANC | 3 | -0.318 | 0.731 | 6.31 |
| CD68 (CD68 molecule) | 1 | 0.719 | 8.02 | 9.06 |
| CD68 (CD68 molecule) | 2 | -0.839 | -2.93 | 3.01 |
| CD68 (CD68 molecule) | 3 | -0.317 | 0.738 | 3.81 |
| MIR1-1HG (MIR1-1 host gene) | 1 | -0.288 | 0.944 | 3.4 |
| MIR1-1HG (MIR1-1 host gene) | 2 | -0.698 | -1.94 | 1.88 |
| MIR1-1HG (MIR1-1 host gene) | 3 | -1.18 | -5.36 | 2.15 |
| OR6B3 (olfactory receptor family 6 subfamily B member 3) | 1 | -0.345 | 0.54 | 4.01 |
| OR6B3 (olfactory receptor family 6 subfamily B member 3) | 2 | 1.13 | 10.9 | 6.28 |
| OR6B3 (olfactory receptor family 6 subfamily B member 3) | 3 | 0.398 | 5.77 | 5.08 |
| HYAL2 (hyaluronidase 2) | 1 | -0.579 | -1.11 | 4.31 |
| HYAL2 (hyaluronidase 2) | 2 | 3.53 | 27.8 | 15 |
| HYAL2 (hyaluronidase 2) | 3 | 3.15 | 25.1 | 16 |
| RPS16P5 (ribosomal protein S16 pseudogene 5) | 1 | 0.28 | 4.93 | 5.64 |
| RPS16P5 (ribosomal protein S16 pseudogene 5) | 2 | 0.648 | 7.53 | 6.02 |
| RPS16P5 (ribosomal protein S16 pseudogene 5) | 3 | -0.439 | -0.122 | 3 |

Not a retest: an excerpt of the list.
| Gene | reagent | G2 robust z-score | G2 cells, % of GMNN control | raw share of cells in G2 (%) |
| --- | --- | --- | --- | --- |
| CD68 (CD68 molecule) | 3 | -0.317 | 0.738 | 3.81 |
| MIR1-1HG (MIR1-1 host gene) | 1 | -0.288 | 0.944 | 3.4 |
| MIR1-1HG (MIR1-1 host gene) | 2 | -0.698 | -1.94 | 1.88 |
| MIR1-1HG (MIR1-1 host gene) | 3 | -1.18 | -5.36 | 2.15 |
| OR6B3 (olfactory receptor family 6 subfamily B member 3) | 1 | -0.345 | 0.54 | 4.01 |
